# Laboratory results published in publication PMC5133869.
# No constants are given. Whether binding was seen depends on the method and setting. In cells and extracts the contact can be indirect. Some entries that bind do so weakly or less than the wild type.
# T1: Tumor necrosis factor receptor-associated factor 2 (human (endogenous in HT1080)), Q12933
# T1 chain: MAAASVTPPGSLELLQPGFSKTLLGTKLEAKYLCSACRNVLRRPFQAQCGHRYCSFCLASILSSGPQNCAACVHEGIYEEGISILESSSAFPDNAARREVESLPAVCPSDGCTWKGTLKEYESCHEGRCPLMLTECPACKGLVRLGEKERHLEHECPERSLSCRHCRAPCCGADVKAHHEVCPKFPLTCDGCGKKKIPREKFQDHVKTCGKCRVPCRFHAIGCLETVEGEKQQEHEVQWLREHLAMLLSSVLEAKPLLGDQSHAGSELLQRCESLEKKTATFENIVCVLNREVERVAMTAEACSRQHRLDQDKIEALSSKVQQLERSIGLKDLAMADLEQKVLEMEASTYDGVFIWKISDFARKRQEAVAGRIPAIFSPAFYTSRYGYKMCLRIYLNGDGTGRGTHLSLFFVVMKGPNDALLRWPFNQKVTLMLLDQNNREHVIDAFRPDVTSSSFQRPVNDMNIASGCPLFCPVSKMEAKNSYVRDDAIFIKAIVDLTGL
# T2: caspase-8 (human (endogenous in HT1080)), Q14790
# T2 chain: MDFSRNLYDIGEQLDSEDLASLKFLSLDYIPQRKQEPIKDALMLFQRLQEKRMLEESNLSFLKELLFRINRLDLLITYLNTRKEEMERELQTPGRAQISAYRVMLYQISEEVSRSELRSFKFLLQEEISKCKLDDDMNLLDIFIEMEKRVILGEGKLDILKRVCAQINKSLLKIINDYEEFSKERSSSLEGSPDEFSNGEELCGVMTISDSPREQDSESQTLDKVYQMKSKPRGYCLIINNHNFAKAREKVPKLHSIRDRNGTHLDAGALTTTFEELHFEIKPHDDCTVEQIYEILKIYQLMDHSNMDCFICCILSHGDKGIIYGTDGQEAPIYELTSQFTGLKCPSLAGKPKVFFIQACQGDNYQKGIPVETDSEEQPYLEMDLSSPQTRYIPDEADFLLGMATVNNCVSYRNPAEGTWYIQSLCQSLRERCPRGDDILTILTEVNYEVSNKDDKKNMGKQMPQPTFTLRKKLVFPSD
# Experiments:
# [1] = biological target: T1, Tumor necrosis factor …; assay: co-IP; endogenous proteins; HT1080 cell extracts immunoprecipitated with anti-TRAF2 antibody, then immunoblotting; cells treated with 50 ng/mL TNF-α for the indicated periods (Figure 5A) or, after control siRNA, with TNF-α and cycloheximide for 4 h (Figure 6C); settings: remark: other sources report otherwise
# [2] = biological target: T2, caspase-8 (human (endogenous in …)); assay: co-IP; complex II analysis: HT1080 cells (control, BIG1, TRAF2 or BIG2 siRNA) treated with 50 ng/mL TNF-α and cycloheximide for 4 h; supernatants precleared with Sepharose 6B, immunoprecipitated with caspase-8 antibody on protein G-Sepharose, immunoblotting; settings: remark: other sources report otherwise
binding [2],Binder,binding [1]
–,"receptor-interacting protein 1, Q13546 1-671 (protein) MQPDMSLNVIKMKSSDFLESAELDSGGFGKVSLCFHRTQGLMIMKTVYKGPNCIEHNEALLEEAKMMNRLRHSRVVKLLGVIIEEGKYSLVMEYMEKGNLMHVLKAEMSTPLSVKGRIILEIIEGMCYLHGKGVIHKDLKPENILVDNDFHIKIADLGLASFKMWSKLNNEEHNELREVDGTAKKNGGTLYYMAPEHLNDVNAKPTEKSDVYSFAVVLWAIFANKEPYENAICEQQLIMCIKSGNRPDVDDITEYCPREIISLMKLCWEANPEARPTFPGIEEKFRPFYLSQLEESVEEDVKSLKKEYSNENAVVKRMQSLQLDCVAVPSSRSNSATEQPGSLHSSQGLGMGPVEESWFAPSLEHPQEENEPSLQSKLQDEANYHLYGSRMDRQTKQQPRQNVAYNREEERRRRVSHDPFAQQRPYENFQNTEGKGTAYSSAASHGNAVHQPSGLTSQPQVLYQNNGLYSSHGFGTRPLDPGTAGPRVWYRPIPSHMPSLHNIPVPETNYLGNTPTMPFSSLPPTDESIKYTIYNSTGIQIGAYNYMEIGGTSSSLLDSTNTNFKEEPAAKYQAIFDNTTSLTDKHLDPIRENLGKHWKNCARKLGFTQSQIDEIDHDYERDGLKEKVYQMLQKWVMREGIKGATVGKLAQALHQCSRIDLLSSLIYVSQN",binds
binds,"Tumor necrosis factor receptor-associated factor 2, Q12933 1-501 (protein) MAAASVTPPGSLELLQPGFSKTLLGTKLEAKYLCSACRNVLRRPFQAQCGHRYCSFCLASILSSGPQNCAACVHEGIYEEGISILESSSAFPDNAARREVESLPAVCPSDGCTWKGTLKEYESCHEGRCPLMLTECPACKGLVRLGEKERHLEHECPERSLSCRHCRAPCCGADVKAHHEVCPKFPLTCDGCGKKKIPREKFQDHVKTCGKCRVPCRFHAIGCLETVEGEKQQEHEVQWLREHLAMLLSSVLEAKPLLGDQSHAGSELLQRCESLEKKTATFENIVCVLNREVERVAMTAEACSRQHRLDQDKIEALSSKVQQLERSIGLKDLAMADLEQKVLEMEASTYDGVFIWKISDFARKRQEAVAGRIPAIFSPAFYTSRYGYKMCLRIYLNGDGTGRGTHLSLFFVVMKGPNDALLRWPFNQKVTLMLLDQNNREHVIDAFRPDVTSSSFQRPVNDMNIASGCPLFCPVSKMEAKNSYVRDDAIFIKAIVDLTGL",–
–,"caspase-8, Q14790 1-479 (enzyme) MDFSRNLYDIGEQLDSEDLASLKFLSLDYIPQRKQEPIKDALMLFQRLQEKRMLEESNLSFLKELLFRINRLDLLITYLNTRKEEMERELQTPGRAQISAYRVMLYQISEEVSRSELRSFKFLLQEEISKCKLDDDMNLLDIFIEMEKRVILGEGKLDILKRVCAQINKSLLKIINDYEEFSKERSSSLEGSPDEFSNGEELCGVMTISDSPREQDSESQTLDKVYQMKSKPRGYCLIINNHNFAKAREKVPKLHSIRDRNGTHLDAGALTTTFEELHFEIKPHDDCTVEQIYEILKIYQLMDHSNMDCFICCILSHGDKGIIYGTDGQEAPIYELTSQFTGLKCPSLAGKPKVFFIQACQGDNYQKGIPVETDSEEQPYLEMDLSSPQTRYIPDEADFLLGMATVNNCVSYRNPAEGTWYIQSLCQSLRERCPRGDDILTILTEVNYEVSNKDDKKNMGKQMPQPTFTLRKKLVFPSD",binds
